# Structures can show the parent of a compound that is named as a salt. Some results were stated once for a whole list of compounds, not compound by compound.
# Biological target: HIV-1 reverse transcriptase (RNase H) (Human immunodeficiency virus type 1 group M subtype B, UniProt P04585)
# Assay: ASH assay: RNase H mediated RNA cleavage (ECL format, BioVeris M384)
# Format: biochemical
# Settings: 5'-ruthenium oligo, BioVeris M384 analyzer
# Method: Potency of a substance as an RNase H inhibitors can be determined by measuring its ability prevent RNase H catalyzed cleavage of the RNA strand in a RNA/DNA hybrid duplex substrate. RNase H activity is measured using a substrate generated by annealing the oligoribo-nucleotide 5′-rCrCrUrCrUrCrArArArArArCrArGrGrArGrCrArGrArArArGrArCrArArG (SEQ ID NO:1) to the oligodeoxyribonucleotide 5′-Biotin-[…] (SEQ ID NO:2). […] (SEQ ID NO:3). The resulting double-stranded duplex DNA product is quantitated in an ALPHA screen format using [streptavidin- and anti-fluorescein-coated beads (Packard Bioscience) following the manufacturer's guidelines and reading on a Fusion AlphaScreen instrument. Alternatively, the released 5′-Biotinylated DNA is annealed to a complementary oligodeoxyribonucleotide: 5′-ruthenium-[…] (SEQ ID NO:3). The resulting double-stranded duplex DNA product is quantitated in an ECL screen format using Dynabeads M280 coated with streptavidin (BioVeris Corporation) following the manufacturer's guidelines and reading on a BioVeris M384 Analyzer.
row,SMILES,IC50
1,"NCc1cccc(-c2cnc3c(c2)c(O)c(-c2ccccc2)c(=O)n3O)c1 [Example 50, 6-[3-(Aminomethyl)phenyl]-1,4-dihydroxy-3-phenyl-1,8-naphthyridin-2(1H)-one]",< 100 µM
2,"O=c1cc(NCc2cccc(F)c2)c2cccnc2n1O [Example 146, 4-[(3-fluorobenzyl)amino]-1-hydroxy-1,8-naphthyridin-2(1H-one)]",< 100 µM
3,"O=C(Nc1ccccc1OCc1ccccn1)c1c(O)c2cccnc2n(O)c1=O [Example 15, 1,4-Dihydroxy-2-oxo-N-[2-(pyridin-2-ylmethoxy)phenyl]-1,2-dihydro-1,8-naphthyridine-3-carboxamide, hydrochloric acid salt]",< 100 µM
4,"COC(=O)c1ccc2c(c1)CCN(c1cc(=O)n(O)c3ncccc13)C2 [Example 121, 4-[6-(methoxycarbonyl)-3,4-dihydroisoquinolin-2(1H)-yl]-1-hydroxy-1,8-naphthyridin-2(1H)-one]",< 100 µM
5,"CC(C1CCN(c2cc(=O)n(O)c3ncccc23)CC1)N1CCOCC1 (stereo not shown) [Example 156, 1-hydroxy-4-{4-[1-(4-morpholinyl)ethyl]-1-piperidinyl}-1,8-naphthyridin-2(1H-one)]",< 100 µM
6,"O=c1cc(O)c2c(-c3cccc(O)c3)ccnc2n1O [Example 226, 1,4-dihydroxy-5-(3-hydroxyphenyl)-1,8-naphthyridin-2(1H)-one]",< 100 µM
7,"O=c1c(Cc2ccccc2)c(O)c2cc(Cc3ccccc3)cnc2n1O [Example 66, 3,6-Dibenzyl-l,4-dihydroxy-1,8-naphthyridin-2(1H)-one]",< 100 µM
8,"NCc1cccc(-c2ccc3c(c2)CN(c2cc(=O)n(O)c4ncccc24)CC3)c1 [Example 252, 4-[7-(3-aminomethylphenyl)-3,4-dihydroisoquinolin-2(1H)-yl]-1-hydroxy-1,8-naphthyridin-2(1H)-one]",< 100 µM
9,"CCOC(=O)c1c(-c2ccc(CCc3ccc(N)cc3)cc2)c2cccnc2n(O)c1=O [Example 264, ethyl 4-{4-[2-(4-aminophenyl)ethyl]phenyl}1-hydroxy-2-oxo-1,2,-dihydro-1,8-naphthyridin-3-carboxylate]",< 100 µM
10,"O=c1c(-c2ccc(Br)cc2)c(O)c2cccnc2n1O [Example 38, 3-(4-Bromophenyl)-1,4-dihydroxy-1,8-naphthyridin-2(1H)-one]",< 100 µM
11,"O=c1cc(-c2cnc3[nH]ccc3c2)c2cccnc2n1O [Example 245, 1-hydroxy-4-(1H-pyrrolo[2,3-b]pyridin-5-yl)-1,8-naphthyridin-2(1H)-one bistrifluoroacetate]",< 100 µM
12,"O=c1cc(NCc2ccccc2)c2cccnc2n1O [Example 126, 4-(benzylamino)-1-hydroxy-1,8-naphthyridin-2(1H)-one]",< 100 µM
13,"CS(=O)(=O)Nc1cccc(-c2cc(=O)n(O)c3ncccc23)c1 [Example 175, N-[3-(1-hydroxy-2-oxo-1,2-dihydro-1,8-naphthyridin-4-yl)phenyl]methanesulfo-namide]",< 100 µM
14,"O=C(NCc1ccc(F)cc1)c1c(O)c2cccnc2n(O)c1=O [Example 18, N-(4-Fluorobenzyl)-1,4-dihydroxy-2-oxo-1,2-dihydro-1,8-naphthyridine-3-carboxamide]",< 100 µM
15,"CCOC(=O)c1c(O)c2cc(Oc3ccc(N(CC)CC)cc3)cnc2n(O)c1=O [Example 90, Ethyl 6-[4-(diethylamino)phenoxy]-1,4-dihydroxy-2-oxo-1,2-dihydro-1,8-naphthyridine-3-carboxylate]",< 100 µM
16,"C[C@H](Nc1cc(=O)n(O)c2ncccc12)c1ccccc1 [Example 124, 1-hydroxy-4-{[(1S)-1-phenylethyl]amino}-1,8-naphthyridin-2(1H)-one]",< 100 µM
17,"O=c1cc(NCc2ccncc2)c2cccnc2n1O [Example 160, 1-hydroxy-4-[(4-pyridinylmethyl)amino]-1,8-naphthyridin-2 (1H-one)]",< 100 µM
18,"Nc1cccc(-c2cnc3c(c2)c(O)cc(=O)n3O)c1 [Example 68, 6-(3-Aminophenyl)-1,4-dihydroxy-1,8-naphthyridin-2(1H)-one]",< 100 µM
19,"NCc1cccc(-c2cc(=O)n(O)c3ncccc23)c1 [Example 172, 4-[3-(aminomethyl)phenyl]-1-hydroxy-1,8-naphthyridin-2(1H)-one]",< 100 µM
20,"O=C(NC1CCN(Cc2ccccc2)CC1)c1c(O)c2cccnc2n(O)c1=O.O=C(O)C(F)(F)F [Example 21, N-(1-Benzylpiperidin-4-yl)-1,4-dihydroxy-2-oxo-1,2-dihydro-1,8-naphthyridine-3-carboxamide, trifluoro-acetic acid salt]",< 100 µM

row,SMILES,IC50
1,"COc1ccc(CNc2cc(=O)n(O)c3ncccc23)cc1 [Example 140, 1-hydroxy-4-[(4-methoxybenzyl)amino]-1,8-naphthyridin-2(1H-one)]",< 100 µM
2,"CN1C(=O)c2c(c3cccnc3n(O)c2=O)NC1c1ccccc1 (stereo not shown) [Example 216, 6-Hydroxy-3-methyl-2-phenyl-2,3-dihydropyrimido[5,4-c]-1,8-naphthyridine-4,5(1H, 6H)-dione]",< 100 µM
3,"O=c1cc(-c2cccc(CN3CCN(Cc4ccccc4)CC3)c2)c2cccnc2n1O [Example 206, 4-{3-[(4-benzyl-1-piperazinyl)methyl]phenyl}-1-hydroxy-1,8-naphthyridin-2(1H-one)]",< 100 µM
4,"CCOC(=O)c1c(O)c2cc(C(=O)N(C)CCc3ccccc3)cnc2n(O)c1=O [Example 81, Ethyl 1,4-dihydroxy-6-{[methyl(2-phenylethyl)amino]carbonyl}-2-oxo-1,2-dihydro-1,8-naphthyridine-3-carboxylate]",< 100 µM
5,"O=c1c(-c2ccc(Cl)cc2)c(O)c2cccnc2n1O [Example 37, 3-(4-Chlorophenyl)-1,4-dihydroxy-1,8-naphthyridin-2(1H)-one]",< 100 µM
6,"CCc1cnc2c(c1)c(O)c(-c1ccccc1)c(=O)n2O [Example 73, 6-Ethyl-1,4-dihydroxy-3-phenyl-1,8-naphthyridin-2(1H)-one]",< 100 µM
7,"CCOC(=O)c1c(-c2cccc(-c3ccc(CN)cc3)c2)c2cc(-c3ccccc3OC)cnc2n(O)c1=O [Example 248, ethyl 4-[4′-(aminomethyl)biphenyl-3-yl]-1-hydroxy-6-(2-methoxyphenyl)-2-oxo-1,2-dihydro-1,8-naphthyridine-3-carboxylate]",< 100 µM
8,"O=c1cc(-c2ccccc2)c2cccnc2n1O [Example 171, 1-Hydroxy-4-phenyl-1,8-naphthyridin-2(H)-one]",< 100 µM
9,"CCOC(=O)c1c(O)c2cc(C(=O)N3CCC(CCCc4ccccc4)CC3)cnc2n(O)c1=O [Example 83, Ethyl 1,4-dihydroxy-2-oxo-6-{[4-(3-phenylpropyl)piperidin-1-yl]carbonyl}-1,2-dihydro-1,8-naphthyridine-3-carboxylate]",< 100 µM
10,"O=c1cc(Nc2ccccc2-c2ccccc2)c2cccnc2n1O [Example 104, 4-(Biphenyl-2-ylamino)-1-hydroxy-1,8-naphthyridin-2(1H)-one]",< 100 µM
11,"CC(NC(=O)c1c(O)c2cccnc2n(O)c1=O)c1ccccc1 (stereo not shown) [Example 23, 1,4-Dihydroxy-2-oxo-N-(1-phenylethyl)-1,2-dihydro-1,8-naphthyridine-3-carboxamide]",< 100 µM
12,"CN(Cc1ccccc1)c1cc(=O)n(O)c2ncccc12 [Example 130, 4-[benzyl(methyl)amino]-1-hydroxy-1,8-naphthyridin-2(1H)-one]",< 100 µM
13,"CS(=O)(=O)Nc1cccc(-c2cccc(-c3cc(=O)n(O)c4ncccc34)c2)c1 [Example 177, N-[3′-(1-hydroxy-2-oxo-1,2-dihydro-1,8-naphthyridin-4-yl)biphenyl-3-yl]methanesulfonamide]",< 100 µM
14,"CN1C(=O)c2c(c3cccnc3n(O)c2=O)NC1c1cccc(CN)c1 (stereo not shown) [Example 220, 2-[3-(Aminomethyl)phenyl]-6-hydroxy-3-methyl-2,3-dihydropyrimido[5,4-c]-1,8-naphthyridine-4,5(1H, 6H)dione]",< 100 µM
15,"O=c1cc(-c2ccc3cc[nH]c3c2)c2cccnc2n1O [Example 186, 1-hydroxy-4-(1H-indol-6-yl)-1,8-naphthyridin-2(1H)-one]",< 100 µM
16,"O=c1cc(N2Cc3ccc(-c4ccccc4)cc3C2)c2cccnc2n1O [Example 256, 1-hydroxy-4-(5-phenyl-1,3-dihydro-2H-isoindol-2-yl)-1,8-naphthyridin-2(1H)-one]",< 100 µM
17,"NCc1ccc(-c2ccc3c(c2)CN(c2cc(=O)n(O)c4ncccc24)C3)cc1 [Example 257, 4-{5-[4-(aminomethyl)phenyl]-1,3-dihydro-2H-isoindol-2-yl}-1-hydroxy-1,8-naphthyridin-2(1H)-one]",< 100 µM
18,"CS(=O)(=O)Nc1ccccc1-c1cc(=O)n(O)c2ncccc12 [Example 201, N-[2-(1-hydroxy-2-oxo-1,2-dihydro-1,8-naphthyridin-4-yl)phenyl]methanesulfo-namide]",< 100 µM
19,"O=c1cc(NC2CCN(Cc3ccccc3)CC2)c2cccnc2n1O [Example 108, 4-[(1-Benzylpiperidin-4-yl)amino]-1-hydroxy-1,8-naphthyridin-2(1H)-one]",< 100 µM
20,"O=C(NCc1ccccc1)c1cnc2c(c1)c(O)c(C(=O)NCc1ccccc1)c(=O)n2O [Example 87, N,N′-Dibenzyl-1,4-dihydroxy-2-oxo-1,2-dihydro-1,8-naphthyridine-3,6-dicarboxamide]",< 100 µM

# From patent US20100056516A1 (priority 2006, published 2010)
